{"source": "the supplement of paper PMC8104966", "note": "The other results are listed elsewhere or left out. This data set is noisy: repeats of one test often differ as much as different tests do.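 U2OS cells expressing ACE2 were combined with U2OS cells expressing full-length spike, and imaging quantified fusion as the fraction of nuclei displaying both cell types' fluorescent markers. Non-toxic compounds with a fusion z-score under -3, i.e., over three standard deviations below the plate's DMSO wells, are called inhibitory hits.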", "data": [{"tested_on": "U2OS ACE2 x SARS-CoV-2 spike co-culture", "assay": "cell-cell fusion (fraction fused) z-score vs plate DMSO control; higher = more fusion", "conditions": "30 µM; 5 h; toxicity class: non-toxic, passed QC", "values": [{"smiles": "O=C(O)[C@H]1/C(=C/CO)O[C@@H]2CC(=O)N21.[Li]", "cell-cell fusion (z-score)": "inactive: 4.47"}, {"smiles": "O=C(NCc1cccc(O)c1)Nc1nc(-c2ccncc2)cs1", "cell-cell fusion (z-score)": "inactive: 1.02"}, {"smiles": "Cc1nnc(C(=O)NC(C)(C)c2nc(C(=O)NCc3ccc(F)cc3)c(O)c(=O)n2C)o1", "note": "[Raltegravir]", "cell-cell fusion (z-score)": "inactive: 1.96"}, {"smiles": "Clc1ccc(COC(Cn2ccnc2)c2ccc(Cl)cc2Cl)cc1.O=[N+]([O-])O", "note": "(configuration not stated)", "cell-cell fusion (z-score)": "inactive: 2.04"}, {"smiles": "O=C(Nc1ccccc1C(=O)NC1CCCCNC1=O)c1cc2ccccc2s1", "note": "(configuration not stated)", "cell-cell fusion (z-score)": "inactive: 1.04"}, {"smiles": "Oc1ccccc1O", "note": "[Pyrocatechol]", "cell-cell fusion (z-score)": "inactive: -0.169"}, {"smiles": "CC(C(=O)O)c1ccc2c(c1)Cc1cccnc1O2", "note": "(configuration not stated)", "cell-cell fusion (z-score)": "inactive: 3.11"}, {"smiles": "CCC(NC(C)C)C(O)c1ccc(O)c(O)c1.CS(=O)(=O)O", "note": "(configuration not stated) [Isotharine mesylate]", "cell-cell fusion (z-score)": "inactive: 1.07"}, {"smiles": "Cl.OC(CCN1CCCC1)(c1ccccc1)C1CCCCC1", "note": "(configuration not stated)", "cell-cell fusion (z-score)": "inactive: -0.279"}, {"smiles": "COc1ccc2[n-]c(S(=O)Cc3ncc(C)c(OC)c3C)nc2c1.[Mg+]", "note": "(configuration not stated)", "cell-cell fusion (z-score)": "inactive: 1.96"}, {"smiles": "CC(C)NCC(O)c1ccc(O)c(O)c1.Cl", "note": "(racemic) [(±)-Isoproterenol hydrochloride]", "cell-cell fusion (z-score)": "inactive: 0.95"}, {"smiles": "C[C@@H]1[C@H](O)[C@@H](C)/C=C/C=C/C=C/C=C/C=C/C=C/C=C/[C@H](O[C@@H]2O[C@H](C)[C@@H](O)[C@H](N)[C@@H]2O)C[C@@H]2O[C@](O)(C[C@@H](O)C[C@@H](O)[C@H](O)CC[C@@H](O)C[C@@H](O)CC(=O)O[C@H]1C)C[C@H](O)[C@H]2C(=O)O", "note": "[Amphotericin B]", "cell-cell fusion (z-score)": "inactive: -1.72"}, {"smiles": "CCc1cccc2c3c([nH]c12)C(CC)(CC(=O)O)OCC3", "note": "(configuration not stated) [Etodolac]", "cell-cell fusion (z-score)": "inactive: 1.61"}, {"smiles": "O=C(CCCl)NCCc1ccccc1", "cell-cell fusion (z-score)": "inactive: 3.5"}, {"smiles": "C[N+](C)(C)CC(=O)[O-]", "note": "[Betaine]", "cell-cell fusion (z-score)": "inactive: 1.95"}, {"smiles": "O=C(O)c1cccnc1Nc1cccc(C(F)(F)F)c1", "note": "[Niflumic acid]", "cell-cell fusion (z-score)": "inactive: 1.22"}, {"smiles": "CC(=O)c1c(O)c(C)c(O)c2c1OC1=CC(=O)C(C(C)=O)C(=O)C12C", "note": "(configuration not stated)", "cell-cell fusion (z-score)": "inactive: 2.44"}, {"smiles": "Cc1cccc(C)c1NC1=NCCCS1", "cell-cell fusion (z-score)": "inactive: -0.0217"}, {"smiles": "O=C1c2c(O)cccc2Cc2cccc(O)c21", "cell-cell fusion (z-score)": "inactive: 1.05"}, {"smiles": "CCC1(c2ccc(N)cc2)CCC(=O)NC1=O", "note": "(configuration not stated)", "cell-cell fusion (z-score)": "inactive: 0.357"}, {"smiles": "COc1ccc(S(=O)(=O)N(C(C)=O)c2ccccc2/C=C/c2cc[n+]([O-])cc2)cc1", "cell-cell fusion (z-score)": "inactive: 0.457"}, {"smiles": "COc1c2c(cc3occ(-c4ccc5c(c4)OCO5)c(=O)c13)OC(C)(C)C=C2", "cell-cell fusion (z-score)": "inactive: 2.07"}]}]}
